Values of other authors as cited in patent publication US8518953B2, “Aminopyrimidines useful as inhibitors of protein kinases” (Vertex Pharmaceuticals Incorporated, priority 2007, dated 2013).
At least one structure is not confirmed: it was looked up by name or label, or the drawing left a doubt.

Test system: Mice over-expressing amyloid precursor protein (APP)
Details: treated over a three-week period; cited from earlier work

[Li] [lithium]
decrease in amyloid-β peptide tissue levels: > 50%
